Laboratory results as given in publication PMC7819943, “Rice protein-binding microarrays: a tool to detect cis-acting elements near promoter regions in rice”.
This is one part of the list.

These sequences were tested against T1, OsSMF1 (Oryza sativa, UniProt Q6ZLB0 1-436) (assay: protein-binding microarray (RPBM); PBS, 2% BSA, 51.3 ng/ul salmon testes DNA, 50 uM zinc acetate, 200 nM TF, 25 C, 1 h; high values mean tight binding). Details: protein: recombinant; tags: N-terminal polyhistidine and DsRed monomer fusion (pET32a); chain copies: 2; label: CyDye5-dUTP incorporated in the synthesized complementary strand; 3' TTTTT single-stranded linker to array surface; dsDNA, one strand shown.
T1 sequence: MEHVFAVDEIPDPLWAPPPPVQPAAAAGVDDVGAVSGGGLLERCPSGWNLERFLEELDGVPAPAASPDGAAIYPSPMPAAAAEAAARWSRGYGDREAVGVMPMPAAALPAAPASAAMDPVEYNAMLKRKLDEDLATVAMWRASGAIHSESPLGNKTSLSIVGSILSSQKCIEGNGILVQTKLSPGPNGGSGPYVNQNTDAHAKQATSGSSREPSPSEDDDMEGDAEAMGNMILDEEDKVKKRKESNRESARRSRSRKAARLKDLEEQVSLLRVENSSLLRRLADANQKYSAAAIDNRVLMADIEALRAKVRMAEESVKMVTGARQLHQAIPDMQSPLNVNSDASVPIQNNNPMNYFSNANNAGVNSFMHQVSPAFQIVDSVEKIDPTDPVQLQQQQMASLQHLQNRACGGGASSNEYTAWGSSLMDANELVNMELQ
How it was run: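 Per-feature fluorescence intensity (arbitrary units), read on an Axon 4000B scanner, is the binding signal. Transcription factors carrying an N-terminal polyhistidine tag and DsRed fusion were expressed in E. coli BL21-CodonPlus and purified on Ni–NTA. A custom Agilent array, made double-stranded by primer extension with Cy5-dUTP and blocked with 2% BSA, was incubated with 200 nM protein in PBS, 2% BSA, salmon testes DNA and 50 µM zinc acetate at 25 °C for 1 h and then washed.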

| Sequence | binding signal |
| --- | --- |
| TGCGTGGGAAATGACTAGGAGTAGGTGTTAGGACCACTCACGGAGTCACCTAGTGCAG | 20400 fluorescence intensity (a.u.) |
| AGGGAATGATACTACCTTTTCAGCCACTCACCATGACGTTCGGAGTCACCTAGTGCAG | 3190 fluorescence intensity (a.u.) |
| TTGCTGGAAGCAGATGCAGACTCAGCATTCCAGCCGGACACGGAGTCACCTAGTGCAG | 3480 fluorescence intensity (a.u.) |
| CTGCACGTTACTCACGTGGCATCTCCAACTCTACCGCCAACGGAGTCACCTAGTGCAG | 7570 fluorescence intensity (a.u.) |
| AAGGTGAGGTTGGTCAACATTTGTCATCAAATTTTGATCACGGAGTCACCTAGTGCAG | 3400 fluorescence intensity (a.u.) |
| ATGTCGTTGCATTAAGCACTGACGCTCTTGTCCCGGTTATCGGAGTCACCTAGTGCAG | 4650 fluorescence intensity (a.u.) |
| GGCAGACGACACTGCATTCACTCCGCTGACACGGCGATTACGGAGTCACCTAGTGCAG | 6660 fluorescence intensity (a.u.) |
| GTCGTGGCGGGAGATGACGTTGATCCTCACGGTGTTGTTGCGGAGTCACCTAGTGCAG | 7420 fluorescence intensity (a.u.) |
| AGTTACACCTCATTTACACCCCACTTACATATGTAATTAGCGGAGTCACCTAGTGCAG | 5050 fluorescence intensity (a.u.) |
| TTCTTGGAACAGCCTAAAGTAGCTGATGACTTTGATGTGCCGGAGTCACCTAGTGCAG | 3330 fluorescence intensity (a.u.) |
| CGTTGCGCACGTACAGCTCACGCTCAAGTCGTACACATTACGGAGTCACCTAGTGCAG | 3840 fluorescence intensity (a.u.) |
| CGCCCGCGCAGTCCACGCACGCAGCGCTGTCGTTCGTTGCCGGAGTCACCTAGTGCAG | 35700 fluorescence intensity (a.u.) |
| TTAAATTACTCATCCGATTTACAATCCGATTACACCGTTGCGGAGTCACCTAGTGCAG | 3640 fluorescence intensity (a.u.) |
| GGCGCCGGCGCTAGCGCCCACGTCGGGGTTGGGGTTGGGGCGGAGTCACCTAGTGCAG | 6010 fluorescence intensity (a.u.) |
| TACAAATACCCGCCTCGCTTCGGACAAACACCTCACTCACCGGAGTCACCTAGTGCAG | 3430 fluorescence intensity (a.u.) |
| AGGGAGATCGATCCGCCTCCGCCTCCGCCTCCGCCATGCTCGGAGTCACCTAGTGCAG | 3360 fluorescence intensity (a.u.) |
| GGTTGACCTCGCGCGTGCGGCGTGTCGTGTCGTGTGTGTGCGGAGTCACCTAGTGCAG | 6100 fluorescence intensity (a.u.) |
| CTTGAACAAAAGAAACAAAGTAGCAAACAGTACACTCGTACGGAGTCACCTAGTGCAG | 33800 fluorescence intensity (a.u.) |
| CGCTGGCGGTGGTCATCACCTGGAGGACCACCGGGCCCATCGGAGTCACCTAGTGCAG | 3340 fluorescence intensity (a.u.) |
| CCACTCTATGTGTACGTGTCATCGTGTCTATGGATGCAATCGGAGTCACCTAGTGCAG | 13100 fluorescence intensity (a.u.) |
| TCATAGGGTAGCTCCTATATATTTCAGCTCTTTGGTCCTTCGGAGTCACCTAGTGCAG | 3780 fluorescence intensity (a.u.) |

| Sequence | binding signal |
| --- | --- |
| ACGACTCCCTCCCACTCTACCCTCGTCTCGTGCGCGTGGACGGAGTCACCTAGTGCAG | 3370 fluorescence intensity (a.u.) |
| TGGCGTGCGTGCGTCACGTCACGTCGCTATTCTTTTGCAACGGAGTCACCTAGTGCAG | 9290 fluorescence intensity (a.u.) |
| GAGGGCGGTTTTGCTGATGTGGCGTTGACGTGGCGATGTTCGGAGTCACCTAGTGCAG | 27700 fluorescence intensity (a.u.) |
| CCGTGATTAGTTCGGTGCGTGTAAAGGTAGTCTGCAACATCGGAGTCACCTAGTGCAG | 3520 fluorescence intensity (a.u.) |
| ATATTCTCTATAGGTGCTGGTTCTAAAACCGGCACCTATACGGAGTCACCTAGTGCAG | 3480 fluorescence intensity (a.u.) |
| TGGAAACCTAGTAATATTGTCACTAGCATGACATCATTTACGGAGTCACCTAGTGCAG | 3950 fluorescence intensity (a.u.) |
| AATAACAAGAATTGTGTATAGGTGGCGCGTCCCAGTATCTCGGAGTCACCTAGTGCAG | 3750 fluorescence intensity (a.u.) |
| GATATGTCATCGGTATCTCAATGACATGTAGGACCCACATCGGAGTCACCTAGTGCAG | 4800 fluorescence intensity (a.u.) |
| TTCGGGATTGAAGTTCCATCTACATGAAAGATGAGTTGCACGGAGTCACCTAGTGCAG | 3670 fluorescence intensity (a.u.) |
| CTGCCTCGATCGATCGATCTCATCTCATCTGCGCTGTTCTCGGAGTCACCTAGTGCAG | 19100 fluorescence intensity (a.u.) |
| GTTTCAACGCTAATGACATGGGCAGGCAATGCGAGGTGTGCGGAGTCACCTAGTGCAG | 4170 fluorescence intensity (a.u.) |
| TTGGGAATCCTGTAGAACGACAGATTTTGATCAGTGAAATCGGAGTCACCTAGTGCAG | 3230 fluorescence intensity (a.u.) |
| GCCATGCATCCATACACGTCTACACTCTACACCCATTAACCGGAGTCACCTAGTGCAG | 4850 fluorescence intensity (a.u.) |
| CCCGCCTCGCCGTCTCCCGTTCGGAACACCAAGCTCCAGCCGGAGTCACCTAGTGCAG | 32200 fluorescence intensity (a.u.) |
| CATTTCTCTGCCACCTCATCACTTTTGCCATCGTGGACACCGGAGTCACCTAGTGCAG | 14300 fluorescence intensity (a.u.) |
| TTTGAAACCCCTCCTCCTCCTCCTTCCCCAACACACAATCCGGAGTCACCTAGTGCAG | 3250 fluorescence intensity (a.u.) |
| TAGGTGGTTAGCCCAAGCTCGCGAGATCGATCGCTACTATCGGAGTCACCTAGTGCAG | 6610 fluorescence intensity (a.u.) |
| CCGAAACCACAAAATTGCGTGGTTTTCGACCGGTTTTCATCGGAGTCACCTAGTGCAG | 6260 fluorescence intensity (a.u.) |
| TATGGTGATACGTGTCTAGTGGTGTGCGTGCTTAGTTTTGCGGAGTCACCTAGTGCAG | 6100 fluorescence intensity (a.u.) |
| ATATTAAAACTTGACAATGCTGTCACCTTATTACTCCCTCCGGAGTCACCTAGTGCAG | 4420 fluorescence intensity (a.u.) |
| CGTTCATCCTGTCCACCCAGAGCCATTGCCACACACACACCGGAGTCACCTAGTGCAG | 3490 fluorescence intensity (a.u.) |

Fetched one by one from above:

| Sequence | binding signal |
| --- | --- |
| GTTTCAACGCTAATGACATGGGCAGGCAATGCGAGGTGTGCGGAGTCACCTAGTGCAG | 4170 fluorescence intensity (a.u.) |
| TAGGTGGTTAGCCCAAGCTCGCGAGATCGATCGCTACTATCGGAGTCACCTAGTGCAG | 6610 fluorescence intensity (a.u.) |
